# Assay results reported in PubChem BioAssay AID540256 (National Center for Advancing Translational Sciences (NCATS), 2011).
# The campaign covered roughly 300,000 compounds. About 3,700 (1.2%) were called active. Inconclusive results, whose numbers are uncertain, are shown with a selection of clear calls. Calls come from the whole dose curve; tested in HEK293 cells. Potencies beside an inconclusive call are fits to weak or partial responses and may not hold up.
# Experiment: qHTS for Inhibitors of binding or entry into cells for Lassa Virus; note: nearly all actives have a fitted effect of over 50% in size
# Details: Lassa virus pseudotype entry inhibition, cell reporter; activity change, negative = inhibition: at 37.9 µM (top of the series) unless noted
# % is set by controls: 0 for no effect and ±100 for the full control effect; potency is the fitted concentration of half-maximal effect.
Compound,Potency,"activity change, negative = inhibition"
COc1ccc(OCC(=O)N/N=C(\C)c2ccc(OC)cc2)cc1,"inconclusive: 25.1 µM [inhibitor, single point]",–
CCOc1ccc(C(=O)N2CCC3(CC2)NCCc2[nH]cnc23)cc1,"inconclusive: 22.4 µM [activator, single point]",–
O=C1CN(C(=O)COc2ccc(Cl)cc2Cl)C(c2ccccc2)c2cc(F)ccc2N1 (stereo unspecified),"inconclusive: 35.5 µM [inhibitor, single point]",–
c1ccc(CCn2nnnc2C(c2cccnc2)N2CCN(c3ccccc3)CC2)cc1 (stereo unspecified),"inconclusive: 14.6 µM [inhibitor, partial curve, poor fit]",–
CCCOc1ccc(N2C(=O)CC(N(CCc3ccc(OC)cc3)C(=O)c3ccccc3)C2=O)cc1 (stereo unspecified),"inconclusive: 3.16 µM [inhibitor, full curve]",–
COc1cc(C(=O)NNC(=S)NC(=O)c2ccc3c(c2)OCO3)cc(OC)c1OC,"inconclusive: 11.2 µM [inhibitor, partial curve]",–
CCOC(=O)c1ccc(NC(=O)CCc2nnc3ccc(N4CCN(C)CC4)nn23)cc1,"inconclusive: 35.5 µM [inhibitor, single point]",–
CCCn1c(NC(=O)c2cccc(S(=O)(=O)N3CCCC3)c2)nc2ccccc21,"inconclusive: 29.1 µM [inhibitor, single point]",–
O=C(c1cccs1)N(Cc1nc2sc3c(c2c(=O)[nH]1)CCCC3)C1CCCC1,active: 3.55 µM,–
CC(=O)c1ccc(OCCCC(=O)Nc2cccc(S(=O)(=O)N3CCCCCC3)c2)cc1,"inconclusive: 35.5 µM [inhibitor, single point]",–
Cc1ccc(-n2ncc3c(NCc4ccccn4)ncnc32)c(C)c1,–,inactive: 6.81%
COc1ccc(CCNc2c(N)n(Cc3ccccc3)c(=O)[nH]c2=O)cc1OC,–,inactive: 0.119%
CCOC(=O)CN1C(=O)C(=O)N(Cc2c(Cl)cccc2Cl)C1=O,"inconclusive: 35.5 µM [activator, single point]",–
CCOC(=O)c1cn2nc(N3CCCC3)ccc2n1,active: 1.41 µM,–
O=C(Nc1ccc2c(c1)OCCO2)c1ccc(Br)cc1,"inconclusive: 7.08 µM [inhibitor, partial curve, poor fit]",–
Cc1ccccc1-c1noc(-c2ccc(NCc3ccco3)c([N+](=O)[O-])c2)n1,–,inactive: -11.7% [at 46.1 µM]
O=C(CCc1ccccc1)NNC(=S)NC(=O)c1ccc(Cl)cc1,"inconclusive: 32.6 µM [inhibitor, single point]",–
Cc1ccccc1CC1(CO)CCCN(C(=O)CCC(=O)c2ccccc2)C1 (stereo unspecified),"inconclusive: 35.5 µM [inhibitor, single point]",–
Cc1ccc2[nH]c(=O)c(C(c3nnnn3CCc3ccccc3)N3CCOCC3)cc2c1 (stereo unspecified),"inconclusive: 0.794 µM [inhibitor, single point]",–
CC(C)(C)c1ccc(C(=O)C2CCCN(C3CCC3)C2)cc1 (stereo unspecified),"inconclusive: 11.2 µM [inhibitor, partial curve]",–
O=C(CCCCCNc1nc(=S)[nH]c2ccccc12)NCCc1c[nH]c2ccccc12,–,inactive: -4.63%
CCOc1ncccc1C(=O)N1CCN(c2cc(Cl)ccc2C)CC1,"inconclusive: 2.82 µM [inhibitor, partial curve, poor fit]",–

Compound,Potency,"activity change, negative = inhibition"
COc1ccc(CCNC(=O)N2c3ccccc3Sc3ccccc32)cc1,"inconclusive: 22.4 µM [inhibitor, single point]",–
O=C(CSc1nc2ccccc2s1)Nc1ncccn1,–,inactive: 5.75%
COc1cc(Cl)ccc1OCc1cc(C(=O)NC(C)Cc2cnccn2)no1 (stereo unspecified),"inconclusive: 35.5 µM [inhibitor, single point]",–
CCN=c1scc(C)n1/N=C/c1cc(Br)c(O)c(OC)c1,"inconclusive: 2.24 µM [inhibitor, full curve, poor fit]",–
CCN(CC)C(=O)C1CCN(S(=O)(=O)c2c(C)noc2/C=C/c2cccc(OC)c2)CC1,"inconclusive: 7.08 µM [inhibitor, partial curve]",–
CCC(C)NC(=O)CCCc1nnc2n(CC(C)C)c(=O)c3sccc3n12 (stereo unspecified),–,inactive: 19.4% [at 46.1 µM]
Cc1c(NC(=O)/C=C/c2ccc(S(=O)(=O)N3CCOCC3)cc2)c(=O)n(-c2ccccc2)n1C,–,inactive: 4.57%
COc1ccc(S(=O)(=O)Nc2ccc3oc(C)c(C(C)=O)c3c2)cc1,"inconclusive: 29.1 µM [inhibitor, single point]",–
CN(C)c1ccc(NC(=O)CSc2n[nH]c(-c3ccco3)n2)cc1,"inconclusive: 4.47 µM [inhibitor, single point]",–
CN(C)S(=O)(=O)Oc1ccsc1C(=O)Nc1cccc(Cl)c1Cl,"inconclusive: 7.3 µM [activator, partial curve, poor fit]",–
Cc1cc(Br)c2c(c1)/C(=C/C(=O)c1cccs1)C(=O)N2,–,inactive: -1.78%
Cc1ccc(S(=O)(=O)CCSc2cccc(C(=O)Nc3ccccc3C(=O)O)c2)cc1,"inconclusive: 25.1 µM [inhibitor, single point]",–
CCN1C(=O)[C@@H]2C(C(=O)c3cnccn3)=NN[C@@H]2C1=O,–,inactive: 5.16% [at 46.1 µM]
Cc1ccc(NC(=O)N2CCC(C(=O)c3ccc(F)cc3)CC2)cc1,–,inactive: 2.1% [at 46.1 µM]
CS(=O)(=O)N(CC(=O)NCCSC1CCCCC1)c1ccc2c(c1)OCO2,–,inactive: -22.2%
CN(C)CC/C=C1\c2cc(F)ccc2CSc2ccccc21,active: 16.4 µM,–
COc1cccc(/C=N/NC(=O)c2nc(-c3ccccc3)cc(-c3ccccc3)n2)c1,"inconclusive: 35.5 µM [inhibitor, single point]",–
COc1ccccc1C(=O)OCC(=O)NC1CCCC1,"inconclusive: 3.55 µM [activator, partial curve]",–
NS(=O)(=O)c1ccc(NC(=O)Nc2ccccc2)cc1,"inconclusive: 17.8 µM [activator, single point]",–
Cc1ccc(NC(=O)CC2Nc3ccccc3NC2=O)cc1C (stereo unspecified),–,inactive: 4.3% [at 46.1 µM]
CN1CCCN(C(=O)Cc2c(Cl)cccc2Cl)c2nc3ccccc3nc21,"inconclusive: 29.1 µM [inhibitor, single point]",–
Cc1ccc(N/N=C/C=C/c2ccco2)cc1,"inconclusive: 35.5 µM [inhibitor, single point]",–

# An excerpt of the results above, as a working copy:
Compound,Potency,"activity change, negative = inhibition"
COc1ccc(CCNC(=O)N2c3ccccc3Sc3ccccc32)cc1,"inconclusive: 22.4 µM [inhibitor, single point]",–
O=C(CSc1nc2ccccc2s1)Nc1ncccn1,–,inactive: 5.75%
COc1cc(Cl)ccc1OCc1cc(C(=O)NC(C)Cc2cnccn2)no1 (stereo unspecified),"inconclusive: 35.5 µM [inhibitor, single point]",–
CCN=c1scc(C)n1/N=C/c1cc(Br)c(O)c(OC)c1,"inconclusive: 2.24 µM [inhibitor, full curve, poor fit]",–
CCN(CC)C(=O)C1CCN(S(=O)(=O)c2c(C)noc2/C=C/c2cccc(OC)c2)CC1,"inconclusive: 7.08 µM [inhibitor, partial curve]",–
CCC(C)NC(=O)CCCc1nnc2n(CC(C)C)c(=O)c3sccc3n12 (stereo unspecified),–,inactive: 19.4% [at 46.1 µM]
Cc1c(NC(=O)/C=C/c2ccc(S(=O)(=O)N3CCOCC3)cc2)c(=O)n(-c2ccccc2)n1C,–,inactive: 4.57%
COc1ccc(S(=O)(=O)Nc2ccc3oc(C)c(C(C)=O)c3c2)cc1,"inconclusive: 29.1 µM [inhibitor, single point]",–
CN(C)c1ccc(NC(=O)CSc2n[nH]c(-c3ccco3)n2)cc1,"inconclusive: 4.47 µM [inhibitor, single point]",–
CN(C)S(=O)(=O)Oc1ccsc1C(=O)Nc1cccc(Cl)c1Cl,"inconclusive: 7.3 µM [activator, partial curve, poor fit]",–
Cc1cc(Br)c2c(c1)/C(=C/C(=O)c1cccs1)C(=O)N2,–,inactive: -1.78%
Cc1ccc(S(=O)(=O)CCSc2cccc(C(=O)Nc3ccccc3C(=O)O)c2)cc1,"inconclusive: 25.1 µM [inhibitor, single point]",–
CCN1C(=O)[C@@H]2C(C(=O)c3cnccn3)=NN[C@@H]2C1=O,–,inactive: 5.16% [at 46.1 µM]
Cc1ccc(NC(=O)N2CCC(C(=O)c3ccc(F)cc3)CC2)cc1,–,inactive: 2.1% [at 46.1 µM]
CS(=O)(=O)N(CC(=O)NCCSC1CCCCC1)c1ccc2c(c1)OCO2,–,inactive: -22.2%
CN(C)CC/C=C1\c2cc(F)ccc2CSc2ccccc21,active: 16.4 µM,–
COc1cccc(/C=N/NC(=O)c2nc(-c3ccccc3)cc(-c3ccccc3)n2)c1,"inconclusive: 35.5 µM [inhibitor, single point]",–

# Additional structures

Compound,Potency,"activity change, negative = inhibition"
CCCCN(C(=O)CSCc1ccc(C)cc1)c1c(N)n(Cc2ccccc2)c(=O)[nH]c1=O,"inconclusive: 2 µM [inhibitor, full curve]",–
COc1ccc(C2=C(C=O)Cc3ccccc3O2)cc1,"inconclusive: 35.5 µM [inhibitor, single point]",–
Cc1c(N=C2Nc3cccc4cccc2c34)c(=O)n(-c2ccccc2)n1C,"inconclusive: 3.16 µM [inhibitor, partial curve, poor fit]",–
Cc1ccc2[nH]c(C)c(CCNC(=O)C3CCCCC3C(=O)OCC(F)(F)F)c2c1 (stereo unspecified),"inconclusive: 0.631 µM [activator, single point]",–
CCCc1cc(=O)oc2cc(C)c3c(-c4ccccc4)coc3c12,"inconclusive: 5.62 µM [inhibitor, single point]",–
COC(=O)c1cc2c(ccn2-c2ccc(F)cc2)n1CC(=O)N1CCN(C(=O)c2ccco2)CC1,"inconclusive: 1.41 µM [inhibitor, partial curve, poor fit]",–
CC(C)(C)NC(=O)Cn1cc(C(=O)c2ccccc2F)c2ccccc21,"inconclusive: 29.1 µM [inhibitor, single point]",–
Cc1sc(-n2c(C)cc(C=C3C(=O)NC(=O)NC3=O)c2C)c(C#N)c1C,"inconclusive: 0.794 µM [inhibitor, full curve, poor fit]",–
CCCCNC(=S)Nc1ccc(SC(F)F)cc1,"inconclusive: 14.1 µM [inhibitor, single point]",–
Cc1cc(C)cc(N2CCCn3c2nc2c3c(=O)n(CC(=O)OCc3ccccc3)c(=O)n2C)c1,"inconclusive: 1.03 µM [inhibitor, partial curve, poor fit]",–
COc1ccc2[nH]c(C(=O)NCCc3ccccc3)cc2c1,–,inactive: -18%
S=C(Nc1ccc(Nc2ccccc2)cc1)Nc1ccccn1,"inconclusive: 31.6 µM [inhibitor, single point]",–
O=C(NCCc1cccc(Cl)c1)C1CCC(=O)N(Cc2ccc(Cl)cc2)C1 (stereo unspecified),–,inactive: -19.4%
CCCCCn1c(N2CCN(c3cccc(Cl)c3)CC2)nc2c1c(=O)[nH]c(=O)n2C,"inconclusive: 12.6 µM [inhibitor, single point]",–
CC(C)c1ccc(OCC(=O)Nc2ccncc2)cc1,"inconclusive: 6.31 µM [activator, single point]",–
N#Cc1c(-c2ccc(F)cc2)c(-c2ccc(F)cc2)nn(CCO)c1=O,"inconclusive: 1.26 µM [inhibitor, single point]",–
Cc1ccc(S(=O)(=O)C(CNC(=O)C(=O)NCCc2ccccc2)c2cccs2)cc1 (stereo unspecified),"inconclusive: 31.6 µM [inhibitor, partial curve, poor fit]",–
O=c1oc2ccccc2c(N2CCN(c3ccccc3F)CC2)c1CN1CCCC1,"inconclusive: 0.562 µM [inhibitor, full curve, poor fit]",–
Cc1nc(CNS(=O)(=O)c2cccc(F)c2)cs1,"inconclusive: 3.26 µM [activator, single point]",–
COC(=O)C1=C(O)C(C(=O)OC)C(c2ccc(C)cc2)C(C#N)(C#N)C1c1ccc(C)cc1 (stereo unspecified),"inconclusive: 18.3 µM [inhibitor, partial curve, poor fit]",–
O=c1[nH]nc(-c2ccc(F)cc2)cc1Cc1cccs1,"inconclusive: 20 µM [inhibitor, partial curve, poor fit]",–
O=c1cnn([C@@H]2O[C@H](CO)[C@@H](O)[C@H]2O)c(=O)[nH]1,active: 0.092 µM,–
